No constants are given. Whether binding was seen depends on the method and setting.
How the values were obtained:
[1] = molecular target: Methanocaldococcus jannaschii fumarate hydratase β-subunit (Methanocaldococcus jannaschii) (UniProt Q58034); assay: crystal structure
[2] = molecular target: Methanocaldococcus jannaschii fumarate hydratase β-subunit (Methanocaldococcus jannaschii) (UniProt Q58034); assay: SEC
[3] = molecular target: Selenomethionine incorporated Methanocaldococcus jannaschii fumarate hydratase β-subunit (of Se-MjFHαβ) (Methanocaldococcus jannaschii) (UniProt Q58034); assay: crystal structure

B1: Methanocaldococcus jannaschii fumarate hydratase β-subunit (enzyme)
chain: MEYTFNKLTKKDVKKLKVGDIVYLNGKIYTARDEAHLKIIEMLKSNEKLPFDLNESIIYHAGPIMKKVNDSWVCVSIGPTTSARMNDVEEEFIKLTNISAIVGKGGMKKELLKTFEDYGVVYLAAPGGCAALLANSVKRVDNVYFLDELGMPEAVWELEVNNFGPLIVAMDSHGNSIYEEVNKKVYEKLNELIGL
With B1 the binding [1] was “no binding” and the binding [2] was “no binding”.

B2: Selenomethionine incorporated Methanocaldococcus jannaschii fumarate hydratase β-subunit (of Se-MjFHαβ) (enzyme, UniProt Q58034 1-195)
chain: B1 chain
modifications: selenomethionine incorporated (eleven selenium atoms per functional dimer)
B2 was tested, and the binding [3] was “no binding”.

From doi:10.1101/2022.09.03.506457 (bioRxiv, 2022)
